The list does not hold the whole screen: it covers a few groups of compounds. Other doses and runs of a compound may be missing. T/C: endpoint of the treated group in % of that of the vehicle group. Some doses have a count of surviving animals in place of a T/C: the source files T/C as zero there, which appears to mark a toxic dose or a test without result, not a measured value. Counts of survivors are from the toxicity check (mostly the fifth day) where no day follows; animals may have died later. Schedules are NCI's codes, read here as Q, the interval in days (D) or hours (H), X, the number of doses. Some complexes appear as separate parts, the way the source draws them; their charges need not add up. Some survivor counts are full or nearly so, which does not show that the dose was tolerated: the source hardly ever lists a survival T/C far under the control, and the zero likely stands for such cases as well. For survival time, the PubChem record calls one and a half times the control and up active, and a quarter to a half above the control has no call in these data; cut-offs in other NCI protocols can differ. Some T/C values carry the count of animals alive at the toxicity check (mostly the fifth day); without a count or a note in brackets, all were alive then. Marks such as (2×) count equal records among those shown. Some entries were tested several times; their values stand side by side, smallest first.
Tested on: CD2F1 mice, L1210 leukemia ip, survival T/C
Assay: NCI In Vivo Anticancer Drug Screen. Data for tumor model L1210 Leukemia (intraperitoneal) in CD2F1 (CDF1) mice
Conditions: T/C endpoint: mean survival time, higher T/C = longer survival
Summary of the method: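 Antitumor effect is scored in animals hosting a serially transplanted tumor. Values compare compound-dosed animals against vehicle-only controls as a simple quotient.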

[1] = dose: 50.0 mg/kg/injection, schedule: Q04DX003 (ip), vehicle: distilled water + Tween-80
[2] = dose: 200.0 mg/kg/injection, schedule: Q04DX003 (ip), vehicle: distilled water + Tween-80
[3] = dose: 15.62 mg/kg/injection, schedule: Q01DX001 (ip), vehicle: DMSO
[4] = dose: 62.5 mg/kg/injection, schedule: Q01DX001 (ip), vehicle: DMSO
[5] = dose: 125.0 mg/kg/injection, schedule: Q01DX001 (ip), vehicle: DMSO
[6] = dose: 250.0 mg/kg/injection, schedule: Q01DX001 (ip), vehicle: DMSO
[7] = dose: 500.0 mg/kg/injection, schedule: Q01DX001 (ip), vehicle: DMSO
[8] = dose: 31.25 mg/kg/injection, schedule: Q01DX001 (ip), vehicle: DMSO

**Q.** `ClCCN(CCCl)[PH+]1NCCCO1.ClCCN(CCCl)[PH+]1NCCCO1.[Cl][Pt][Cl]` (configuration not stated) was tested. Which T/C (dose: 3.13 mg/kg/injection, schedule: Q04DX003 (ip), vehicle: distilled water + Tween-80) did it give?
**A.** The T/C was 92 % of control (2×).

**Q.** And the T/C (dose: 6.25 mg/kg/injection, schedule: Q04DX003 (ip), vehicle: distilled water + Tween-80)?
**A.** The T/C was 97 and 98 % of control.

**Q.** What about the T/C (dose: 12.5 mg/kg/injection, schedule: Q04DX003 (ip), vehicle: distilled water + Tween-80) of the same compound?
**A.** Its T/C is 92 and 93 % of control.

**Q.** And the T/C (dose: 25.0 mg/kg/injection, schedule: Q04DX003 (ip), vehicle: distilled water + Tween-80)?
**A.** The T/C was 88 and 92 % of control.

**Q.** What about the T/C [1] of the same compound?
**A.** Its T/C is 88 % of control.

**Q.** And the survivor count [1]?
**A.** Its survivor count is 6 of 6.

**Q.** What about the T/C (dose: 100.0 mg/kg/injection, schedule: Q04DX003 (ip), vehicle: distilled water + Tween-80) of the same compound?
**A.** The T/C was 87 % of control (2×).

**Q.** And the T/C [2]?
**A.** Its T/C is 90 % of control.

**Q.** What about the survivor count [2] of the same compound?
**A.** The survivor count was 6 of 6.

**Q.** With `CC(C=O)COP(=O)(N(CCCl)CCCl)N1CC1` (configuration not stated) as the compound, how does the T/C [3] read?
**A.** Its T/C is 103 % of control.

**Q.** And the T/C (dose: 31.3 mg/kg/injection, schedule: Q01DX001 (ip), vehicle: DMSO)?
**A.** Its T/C is 117 % of control.

**Q.** What about the T/C [4] of the same compound?
**A.** The T/C was 135 % of control.

**Q.** And the T/C [5]?
**A.** The T/C was 127 % of control [5 of 6 alive].

**Q.** What about the survivor count [6] of the same compound?
**A.** Its survivor count is 3 of 6.

**Q.** What about the survivor count [7] of the same compound?
**A.** The survivor count was 0 of 6.

**Q.** With `O=P1(N(CCCl)CCCl)NCC(CCO)O1` (configuration not stated) as the compound, how does the T/C [3] read?
**A.** The T/C was 95 % of control.

**Q.** And the T/C [8]?
**A.** Its T/C is 103 % of control.

**Q.** What about the T/C [4] of the same compound?
**A.** The T/C was 97 % of control.

**Q.** What about the T/C [5] of the same compound?
**A.** Its T/C is 104 % of control.

**Q.** And the T/C [6]?
**A.** Its T/C is 101 % of control.

**Q.** And the T/C [7]?
**A.** The T/C was 117 % of control.

**Q.** What does the source list for `O=C1CCNP(=O)(N(CCCl)CCCl)O1` (configuration not stated)?
**A.** T/C (dose: 15.63 mg/kg/injection, schedule: Q01DX001 (ip), vehicle: DMSO): 102 % of control; T/C [8]: 108 % of control; T/C [4]: 111 % of control; T/C [5]: 111 % of control; T/C [6]: 133 % of control; survivor count [7]: 0 of 6; survivor count (dose: 1000.0 mg/kg/injection, schedule: Q01DX001 (ip), vehicle: DMSO): 0 of 6

**Q.** Which T/C (dose: 25.0 mg/kg/injection, schedule: Q01DX009 (ip), vehicle: other) does the source give for `O=P1(N(CCCl)CCCl)NCc2ccccc2O1` (configuration not stated) here?
**A.** The T/C was 87 % of control.

**Q.** What about the T/C (dose: 31.8 mg/kg/injection, schedule: Q01DX001 (ip), vehicle: other) of the same compound?
**A.** The T/C was 100 % of control.

**Q.** What about the T/C (dose: 50.0 mg/kg/injection, schedule: Q01DX009 (ip), vehicle: other) of the same compound?
**A.** Its T/C is 92 % of control.

**Q.** And the T/C (dose: 62.5 mg/kg/injection, schedule: Q01DX001 (ip), vehicle: other)?
**A.** Its T/C is 92 % of control.

**Q.** And the T/C (dose: 100.0 mg/kg/injection, schedule: Q01DX009 (ip), vehicle: other)?
**A.** Its T/C is 86 % of control.

**Q.** What about the T/C (dose: 125.0 mg/kg/injection, schedule: Q01DX001 (ip), vehicle: other) of the same compound?
**A.** The T/C was 98 % of control [5 of 6 alive].

**Q.** What about the survivor count (dose: 200.0 mg/kg/injection, schedule: Q01DX009 (ip), vehicle: other) of the same compound?
**A.** The survivor count was 2 of 6.

**Q.** And the survivor count (dose: 250.0 mg/kg/injection, schedule: Q01DX001 (ip), vehicle: other)?
**A.** Its survivor count is 3 of 6.

**Q.** What about the survivor count (dose: 500.0 mg/kg/injection, schedule: Q01DX001 (ip), vehicle: other) of the same compound?
**A.** Its survivor count is 0 of 6.
